The target of this assay is recombinant TROP2-His*6 antigen (UniProt P09758). Briefly: ELISA; TROP2-His*6 coated on plate, goat anti-human Fc-HRP detection, OD450. Background: An ELISA detects its analyte on a solid surface through an enzyme-linked reagent.

Chains of the proteins cited; added tags and fusions are not shown. Lines headed by an entry give the natural chain unless they say otherwise; changes in a name come on top. A line that says so, or that is headed by a name, gives the form on record, which may keep a tag or linker.
recombinant TROP2-His*6 antigen (P09758, form named): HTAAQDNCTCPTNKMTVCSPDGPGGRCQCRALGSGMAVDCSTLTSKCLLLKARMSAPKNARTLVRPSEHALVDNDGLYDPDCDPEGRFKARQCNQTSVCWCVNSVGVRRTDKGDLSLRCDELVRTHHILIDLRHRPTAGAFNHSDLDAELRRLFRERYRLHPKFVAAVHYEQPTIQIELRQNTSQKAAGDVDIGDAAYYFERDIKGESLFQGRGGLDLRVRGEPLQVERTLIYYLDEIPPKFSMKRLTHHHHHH

Results are given in words; binding and its absence hold for the method and conditions named. Some entries that bind do so weakly or less than the wild type.

The values that follow come from US20250205349A1, “ANTI-HUMAN TROP2 ANTIBODY-CAMPTOTHECIN DRUG CONJUGATE AND MEDICAL USE THEREOF” (SYSTIMMUNE, INC., priority 2021, published 2025).

B1: antibody hu4D3 (antibody, human IgG1, kappa, V domains shown)
VH: QVQLVQSGAEVKKPGASVKLSCKASGYTFTSFDINWVRQAPEQRLEWMGWIFPGDGNTKYSQKFQGRATITRDTSASTAYMELSSLRSEDTAVYYCVRGEALYYFDYWGQGTLVTVSS
VL: DIQMTQSPSSLSASVGDRVTITCRASQDINKYLAWYQQKPGKVPKLLIYSTSTLQSGVPSRFSGSGSGTDFTLTISSLQPEDVATYYCLQYDDLFTFGQGTKLEIKR
Regarding B1, the binding entry was “binds”.
